In US12297295B2 (Saint Leo University, priority 2019, dated 2025):
End groups of sequences in plain letters are not given here.

Experiment: peptide synthesis
Conditions: whole synthesis

Sequence: ISFQLMLCVLDYF
- final purity (method not given): about 99%
